{"source": "PubChem BioAssay AID1471", "about": "(National Center for Advancing Translational Sciences (NCATS), 2008)", "note": "The whole screen tested about 230,000 compounds, of which about 310 (0.13%) were called active. The shares of active, inactive and inconclusive entries below differ from those in the screen. Calls come from the whole dose curve; as a rule, active = well fitted activation curve with a large enough effect; inconclusive = small, poorly fitted or top-dose-only effect; inactive = no such curve, though single readings can be large or run the other way. Potencies beside an inconclusive call are fits to weak or partial responses and may not hold up. Potency is the fitted concentration of half-maximal effect.", "data": [{"assay": "qHTS Multiplex Assay to Identify Dual Action Probes in a Cell Model of Huntington: Cytoprotection (ATP); note: nearly all actives have a fitted effect of over 45% in size;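 for cytoprotection (ATP increase): toxic huntingtin expression switched on by the ecdysone agonist tebufenozide; % of control where 0% means no effect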", "conditions": "PC12 HTT-Q103 induced, ATP luminescence, 40 h; cytoprotection (ATP increase): at 56.4 µM (top of the series) unless noted", "outline": "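Compounds were screened for protection of PC12 cells against cell death after tebufenozide induction (100 nM final) of mutant Huntingtin exon 1 (Q103) fused to GFP.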", "values": [{"smiles": "CCC1C(=O)N(c2nc(C)cc(C)n2)N=C1C", "note": "(stereo not drawn)", "Potency": "inconclusive: 0.794 µM [activator, single point]"}, {"smiles": "COc1ccc(C)cc1C(=O)CCC(=O)Nc1ccccc1N1CCOCC1", "cytoprotection (ATP increase)": "inactive: 17% [at 10 µM]"}, {"smiles": "CCCC(=O)N(C1CC(C)C(C#N)(C#N)C1(C#N)C#N)N(C)C", "note": "(stereo not drawn)", "Potency": "inconclusive: 5.62 µM [activator, single point]"}, {"smiles": "COC(=O)CCC(=O)OC1(C)C(=O)C2=CN(c3ccccc3)C(c3ccc(OC)cc3)=CC2=C(Br)C1=O", "note": "(stereo not drawn)", "cytoprotection (ATP increase)": "inactive: -14.7% [at 10 µM]"}, {"smiles": "CS(=O)(=O)c1ccc([C@H](O)[C@H](CF)NC(=O)C(Cl)Cl)cc1", "Potency": "inconclusive: 3.98 µM [activator, partial curve, poor fit]"}, {"smiles": "CCSc1nnc(NC(=O)c2ccc3ccccc3n2)s1", "Potency": "inactive"}, {"smiles": "Clc1ccsc1-c1ccnc(-n2cccc2)n1", "Potency": "inconclusive: 0.891 µM [activator, single point]"}, {"smiles": "CC1=NN(c2cccc(Cl)c2)C(=O)C12CC(C)=C(C)CS2", "note": "(stereo not drawn)", "Potency": "inconclusive: 35.5 µM [activator, single point]"}, {"smiles": "C=C(C(=O)c1ccccc1)C(C(=C)C(=O)c1ccccc1)c1ccc(OC)cc1", "Potency": "inconclusive: 3.98 µM [activator, single point]"}, {"smiles": "O=S(=O)(c1ccc2ccccc2c1)N1CCN(S(=O)(=O)N2CCCCC2)CC1", "Potency": "inconclusive: 1.58 µM [activator, partial curve]"}, {"smiles": "Cn1c(N)c(S(=O)(=O)N2CCN(C(=O)c3ccco3)CC2)c(=O)n(C)c1=O", "Potency": "inconclusive: 8.91 µM [activator, partial curve, poor fit]"}, {"smiles": "CN1CCc2cc(O)c(O)cc2[C@H](c2ccccc2)C1", "cytoprotection (ATP increase)": "inactive: -6.74% [at 1.9 µM]"}, {"smiles": "O=C(COC(=O)CCSc1ccc(Cl)cc1)NCCc1ccccc1", "cytoprotection (ATP increase)": "inactive: 9.95% [at 10 µM]"}, {"smiles": "Cn1c(SCC(=O)N2c3ccccc3Sc3ccccc32)nc2ccccc21", "Potency": "inconclusive: 5.62 µM [activator, single point]"}, {"smiles": "O=C(/C=C/c1c(F)cccc1Cl)c1ccc(F)cc1", "Potency": "inactive"}, {"smiles": "CCCC(Oc1ccc(Br)cc1)c1nc2c3cc(OC)c(OC)cc3nc(=S)n2[nH]1", "note": "(stereo not drawn)", "Potency": "inconclusive: 1.26 µM [activator, single point]"}, {"smiles": "COc1cc(C2NC(=S)NC(c3ccccc3)=C2C(C)=O)ccc1O", "note": "(stereo not drawn)", "Potency": "inactive"}, {"smiles": "COC(=O)C(C(C)=O)C1=C/C(=N\\S(=O)(=O)c2ccc(C)cc2)c2ccccc2C1=O", "note": "(stereo not drawn)", "Potency": "inactive"}, {"smiles": "c1csc(CNc2nc(-c3ccc4c(c3)OCO4)nc3ccccc23)c1", "Potency": "inconclusive: 7.08 µM [activator, partial curve]"}, {"smiles": "O=c1n(CCCN2CCN(c3cccc(Cl)c3)CC2)nc2ccccn12", "Potency": "inconclusive: 0.0891 µM [activator, full curve]"}, {"smiles": "Cc1ccc(NCc2ccc(O)c3ncccc23)cc1", "Potency": "inconclusive: 5.01 µM [activator, single point]"}, {"smiles": "C=CCc1cc(/C=C2/NC(=O)N(CC(=O)OC)C2=O)cc(OC)c1O", "Potency": "inconclusive: 1 µM [activator, single point]"}, {"smiles": "Cc1ccc2c(c1)c1c(n2C)C(C(N)=O)CCC1", "note": "(stereo not drawn)", "cytoprotection (ATP increase)": "inactive: 17.1% [at 10 µM]"}, {"smiles": "COc1ccc(N=Cc2nc(-c3ccco3)oc2O)cc1", "Potency": "inconclusive: 0.112 µM [activator, partial curve, poor fit]"}, {"smiles": "O=C(NCc1cccnc1)C(=O)Nc1nc2ccccc2s1", "Potency": "inconclusive: 2.51 µM [activator, partial curve, poor fit]"}, {"smiles": "Cc1cc(NC(=O)CSCc2nc(-c3cccc(F)c3)oc2C)no1", "Potency": "inconclusive: 2.51 µM [activator, partial curve]"}, {"smiles": "COCOc1ccc(Br)cc1C(=O)[C@H]1O[C@H]1c1cccc(OC)c1", "Potency": "inconclusive: 1 µM [activator, single point]"}, {"smiles": "COc1cccc(/C=N/N2CCN(C)CC2)c1", "Potency": "inconclusive: 0.0891 µM [activator, full curve]"}, {"smiles": "COC(=O)[C@@]1(Cc2ccc(OC)cc2)[C@@H]2C(=CC(=O)[C@H]2CC(=O)C(=O)N(C)C)CN1C(=O)c1ccccc1", "Potency": "inconclusive: 31.6 µM [activator, single point]"}, {"smiles": "Cn1c(Cc2ccccc2)nnc1SCC(=O)c1cccs1", "Potency": "inconclusive: 4.47 µM [activator, single point]"}, {"smiles": "OCCC1CN(Cc2cnc(N3CCOCC3)s2)CCN1C1CCCC1", "note": "(stereo not drawn)", "cytoprotection (ATP increase)": "inactive: -9.5% [at 10 µM]"}, {"smiles": "Cc1ccsc1C(=O)OCC(=O)NCCC1=CCCCC1", "Potency": "inconclusive: 5.62 µM [activator, single point]"}, {"smiles": "Cc1cccc(NC(=O)Nc2ccc(C#N)cc2)n1", "Potency": "inconclusive: 7.94 µM [activator, partial curve]"}, {"smiles": "Cc1cccc(-c2nnc3n2N=C(c2ccccc2Br)CS3)c1", "cytoprotection (ATP increase)": "inactive: -25.9% [at 0.074 µM]"}, {"smiles": "S=C(S)N1CCCC1", "Potency": "inconclusive: 0.282 µM [activator, full curve, poor fit]"}, {"smiles": "COc1ccc2[nH]cc(CCNc3ncncc3-c3cccc(C#N)c3)c2c1", "Potency": "inconclusive: 15.8 µM [activator, partial curve]"}, {"smiles": "O=C(CSc1nc2ccccc2s1)NNC(=S)Nc1ccccc1", "cytoprotection (ATP increase)": "inactive: 10.3% [at 10 µM]"}, {"smiles": "NC(N)=NC(=O)c1nc(Cl)c(N)nc1N", "Potency": "inconclusive: 0.224 µM [activator, single point]"}, {"smiles": "Cc1cc(NC(=O)COC(=O)C2CCN(C(=O)c3ccc(Cl)cc3)CC2)no1", "Potency": "inconclusive: 8.91 µM [activator, single point]"}, {"smiles": "O=c1oc2c(O)c(O)cc3c(=O)oc4c(O)c(O)cc1c4c23", "Potency": "inactive"}, {"smiles": "Cc1ccnc(NC(=S)NC(=O)c2ccco2)c1", "Potency": "inactive"}, {"smiles": "Cc1ccccc1/C=N/n1c(-c2ccccn2)n[nH]c1=S", "cytoprotection (ATP increase)": "inactive: 6.21% [at 10 µM]"}, {"smiles": "O=C(/C=C/c1cccc([N+](=O)[O-])c1)Nc1ccccn1", "Potency": "inactive"}, {"smiles": "O=C(c1ccc(Cl)c(S(=O)(=O)N2CCOCC2)c1)N1CCCCC1", "Potency": "inconclusive: 0.501 µM [activator, partial curve, poor fit]"}, {"smiles": "COC(=O)[C@@]1(Cc2ccccc2)[C@H]2c3cc(C(=O)N(C)C)n(Cc4ccc(O)c(OC)c4)c3C[C@H]2CN1C(=O)c1ccccc1", "Potency": "inconclusive: 1.58 µM [activator, full curve, poor fit]"}, {"smiles": "COc1cc(-c2noc(-c3ccccc3C(=O)NCc3ccco3)n2)cc(OC)c1OC", "Potency": "inconclusive: 1.12 µM [activator, single point]"}, {"smiles": "CC(/C=C/c1ccccc1)=N\\NC(=O)c1ccncc1", "Potency": "inconclusive: 0.891 µM [activator, full curve, poor fit]"}, {"smiles": "COC(=O)[C@@]1(Cc2ccc(F)cc2)[C@H]2c3cc(C(=O)N(C)C)n(CCF)c3C[C@H]2CN1C(=O)c1ccccc1", "Potency": "inconclusive: 3.98 µM [activator, partial curve]"}, {"smiles": "CCN(CC)CCCOC(=O)C1(c2ccccc2)CCCC1", "Potency": "inactive"}, {"smiles": "O=C(OCCCN=C1NS(=O)(=O)c2ccccc21)c1ccc(F)cc1", "Potency": "inconclusive: 5.01 µM [activator, partial curve, poor fit]"}, {"smiles": "O=C(c1cc(-c2ccccc2)on1)N1CCCC1", "cytoprotection (ATP increase)": "inactive: 0.296% [at 0.074 µM]"}, {"smiles": "CCc1ccc(Cc2cnc(NC(=O)C3=NCCN3)s2)cc1", "Potency": "inconclusive: 1.26 µM [activator, single point]"}, {"smiles": "CC1Cc2nc(SCC(N)=O)n(Cc3ccccc3)c(=O)c2S1", "note": "(stereo not drawn)", "Potency": "inactive"}, {"smiles": "CCNc1ncc2nc(-c3ccc(OC)cc3)c(=O)n(CCc3ccccc3)c2n1", "Potency": "inconclusive: 39.8 µM [activator, single point]"}, {"smiles": "Cc1ccccc1CSCC(=O)NC(=O)NCc1ccco1", "cytoprotection (ATP increase)": "inactive: 3.55% [at 10 µM]"}, {"smiles": "C[C@]12C=CC(=O)C=C1CCC1C2C(=O)C[C@]2(C)C1CC[C@]2(O)C(=O)CO", "note": "(stereo partly drawn)", "Potency": "inactive"}, {"smiles": "CCN(c1cccc(C)c1)S(=O)(=O)c1c(C)[nH]c(=O)[nH]c1=O", "Potency": "inactive"}, {"smiles": "CCOC(=O)C1=C(C)OC(N)=C(C#N)C1c1cc2c(cc1[N+](=O)[O-])OCO2", "note": "(stereo not drawn)", "Potency": "inconclusive: 35.5 µM [activator, single point]"}, {"smiles": "Brc1ccc2c(c1)CNc1c(ncnc1N1CCOCC1)O2", "Potency": "inconclusive: 5.62 µM [activator, single point]"}, {"smiles": "O=C(CN1CCN(Cc2ccccc2)C1=O)NCc1ccc(Cl)cc1", "Potency": "inconclusive: 3.55 µM [activator, partial curve, poor fit]"}, {"smiles": "Cc1noc(C)c1C(=O)N1CCC[C@@]2(CCN(c3cccc(-c4ccccc4)c3)C2)C1", "Potency": "inconclusive: 35.5 µM [activator, partial curve, poor fit]"}, {"smiles": "COc1cccc(CNC(=O)CCC2CCCN(C/C=C/c3ccccc3OC)C2)c1", "note": "(stereo not drawn)", "Potency": "inconclusive: 1.26 µM [activator, single point]"}, {"smiles": "CC(=O)NS(=O)(=O)c1ccc(N)cc1", "Potency": "inconclusive: 8.91 µM [activator, single point]"}, {"smiles": "Cc1ccc(C)c(SCC(=O)NC(=O)Nc2ccc3c(c2)OCCO3)c1", "Potency": "inconclusive: 0.708 µM [activator, full curve, poor fit]"}, {"smiles": "COCCN1C=C(C(=O)OC)C(c2cc3c(cc2Br)OCO3)C(C(=O)OC)=C1", "Potency": "inactive"}, {"smiles": "CN(C)S(=O)(=O)c1cccc(N2C(=O)CC3(CCCCC3)CC2=O)c1", "Potency": "inconclusive: 0.891 µM [activator, single point]"}, {"smiles": "COc1ccc(NS(=O)(=O)c2ccc(I)cc2)cc1N1CCN(C)CC1", "Potency": "inconclusive: 15.8 µM [activator, single point]"}, {"smiles": "NCCCCCc1nnc(SCC(N)=O)o1", "Potency": "inactive"}]}]}
